US7439264B2, “Therapeutic compounds” (President and Fellows of Harvard College, priority 2002, dated 2008)

These molecules were tested on dopamine transporter (DAT) (assay: Competition binding with [3H]WIN 35,428 at the dopamine transporter). Details: ratio of IC50 values.
Method: The affinities (IC50) of the compounds for the dopamine and serotonin transporters were determined in competition studies using [3H]2β-carbomethoxy-3β-(4-fluorophenyl)-8-methyl-8-azabicyclo[3.2.1]octane ([^3H]WIN 35,428) to label the dopamine transporter and [^3H]citalopram to label the serotonin transporter. Competition studies were conducted with a fixed concentration of radioligand and a range of concentrations of the test compound. […] The cells were then exhaustively washed to remove non-covalently bound ligand and binding of cocaine (20 nM) and dopamine uptake (Vmax) were compared.

| SMILES | Selectivity SERT/DAT |
| --- | --- |
| O=C(CCC1CO1)OCC1C2CCC(CC1c1ccc(Cl)c(Cl)c1)O2 (racemic) [Compound O-1834, 3-Oxiranyl-propionic acid [3α-(3,4-dichlorophenyl)-8-oxabicyclo[3.2.1]oct-3β-yl]methyl ester] | 17 |
| C=CCCC(=O)OCC1C2CCC(CC1c1ccc(Cl)c(Cl)c1)O2 (stereo not drawn) [Compound O-1893, pent-4-enoic acid-(3α-(3,4-dichlorophenyl)-8-oxabicyclo[3.2.1]oct-2β-yl)methyl ester] | 30 |
| CC(C)CC(=O)OCC1C2CCC(CC1c1ccc(Cl)c(Cl)c1)O2 (stereo not drawn) [Compound O-2059, 3-Methylbutanoic acid-[3α-(3,4-dichlorophenyl)-8-oxabicyclo[3.2.1]oct-2β-yl]methyl ester] | 7 |
| CCCCC(=O)OCC1C2CCC(CC1c1ccc(Cl)c(Cl)c1)O2 (stereo not drawn) [Compound O-2102, Pentanoic acid-[3α-(3,4-dichlorophenyl)-8-oxabicyclo[3.2.1]oct-2β-yl]methyl ester] | 13 |
| C=CCCCOCC1C2CCC(CC1c1ccc(Cl)c(Cl)c1)O2 (stereo not drawn) [Compound O-2153, 3α-(3,4-dichlorophenyl)-2β-pent-4-enyloxymethyl-8-oxabicyclo[3.2.1]octane] | 13 |
| COC(=O)C1C(c2ccc(F)cc2)CC2CCC1N2C (stereo not drawn) [WIN 35,428, 2β-carbomethoxy-3β-(4-fluorophenyl)-8-methyl-8-azabicyclo[3.2.1]octane, reference compound] | 15 |
